Measured values reported in article PMC6744468.
No constants are given. Whether binding was seen depends on the method and setting. Binding seen in cells or lysates may run through a third protein. Some binding calls cover weakened binding; strength is not graded here.

Amino acid sequences for entries named in this document (tags omitted).
UniProt O95166: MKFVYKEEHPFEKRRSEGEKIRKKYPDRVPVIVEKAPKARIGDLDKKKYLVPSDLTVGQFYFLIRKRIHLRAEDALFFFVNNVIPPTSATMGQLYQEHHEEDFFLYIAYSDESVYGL
UniProt P60520: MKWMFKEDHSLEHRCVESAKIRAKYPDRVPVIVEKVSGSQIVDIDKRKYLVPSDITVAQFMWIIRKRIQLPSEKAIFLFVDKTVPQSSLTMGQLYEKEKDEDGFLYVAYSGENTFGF
UniProt O15078: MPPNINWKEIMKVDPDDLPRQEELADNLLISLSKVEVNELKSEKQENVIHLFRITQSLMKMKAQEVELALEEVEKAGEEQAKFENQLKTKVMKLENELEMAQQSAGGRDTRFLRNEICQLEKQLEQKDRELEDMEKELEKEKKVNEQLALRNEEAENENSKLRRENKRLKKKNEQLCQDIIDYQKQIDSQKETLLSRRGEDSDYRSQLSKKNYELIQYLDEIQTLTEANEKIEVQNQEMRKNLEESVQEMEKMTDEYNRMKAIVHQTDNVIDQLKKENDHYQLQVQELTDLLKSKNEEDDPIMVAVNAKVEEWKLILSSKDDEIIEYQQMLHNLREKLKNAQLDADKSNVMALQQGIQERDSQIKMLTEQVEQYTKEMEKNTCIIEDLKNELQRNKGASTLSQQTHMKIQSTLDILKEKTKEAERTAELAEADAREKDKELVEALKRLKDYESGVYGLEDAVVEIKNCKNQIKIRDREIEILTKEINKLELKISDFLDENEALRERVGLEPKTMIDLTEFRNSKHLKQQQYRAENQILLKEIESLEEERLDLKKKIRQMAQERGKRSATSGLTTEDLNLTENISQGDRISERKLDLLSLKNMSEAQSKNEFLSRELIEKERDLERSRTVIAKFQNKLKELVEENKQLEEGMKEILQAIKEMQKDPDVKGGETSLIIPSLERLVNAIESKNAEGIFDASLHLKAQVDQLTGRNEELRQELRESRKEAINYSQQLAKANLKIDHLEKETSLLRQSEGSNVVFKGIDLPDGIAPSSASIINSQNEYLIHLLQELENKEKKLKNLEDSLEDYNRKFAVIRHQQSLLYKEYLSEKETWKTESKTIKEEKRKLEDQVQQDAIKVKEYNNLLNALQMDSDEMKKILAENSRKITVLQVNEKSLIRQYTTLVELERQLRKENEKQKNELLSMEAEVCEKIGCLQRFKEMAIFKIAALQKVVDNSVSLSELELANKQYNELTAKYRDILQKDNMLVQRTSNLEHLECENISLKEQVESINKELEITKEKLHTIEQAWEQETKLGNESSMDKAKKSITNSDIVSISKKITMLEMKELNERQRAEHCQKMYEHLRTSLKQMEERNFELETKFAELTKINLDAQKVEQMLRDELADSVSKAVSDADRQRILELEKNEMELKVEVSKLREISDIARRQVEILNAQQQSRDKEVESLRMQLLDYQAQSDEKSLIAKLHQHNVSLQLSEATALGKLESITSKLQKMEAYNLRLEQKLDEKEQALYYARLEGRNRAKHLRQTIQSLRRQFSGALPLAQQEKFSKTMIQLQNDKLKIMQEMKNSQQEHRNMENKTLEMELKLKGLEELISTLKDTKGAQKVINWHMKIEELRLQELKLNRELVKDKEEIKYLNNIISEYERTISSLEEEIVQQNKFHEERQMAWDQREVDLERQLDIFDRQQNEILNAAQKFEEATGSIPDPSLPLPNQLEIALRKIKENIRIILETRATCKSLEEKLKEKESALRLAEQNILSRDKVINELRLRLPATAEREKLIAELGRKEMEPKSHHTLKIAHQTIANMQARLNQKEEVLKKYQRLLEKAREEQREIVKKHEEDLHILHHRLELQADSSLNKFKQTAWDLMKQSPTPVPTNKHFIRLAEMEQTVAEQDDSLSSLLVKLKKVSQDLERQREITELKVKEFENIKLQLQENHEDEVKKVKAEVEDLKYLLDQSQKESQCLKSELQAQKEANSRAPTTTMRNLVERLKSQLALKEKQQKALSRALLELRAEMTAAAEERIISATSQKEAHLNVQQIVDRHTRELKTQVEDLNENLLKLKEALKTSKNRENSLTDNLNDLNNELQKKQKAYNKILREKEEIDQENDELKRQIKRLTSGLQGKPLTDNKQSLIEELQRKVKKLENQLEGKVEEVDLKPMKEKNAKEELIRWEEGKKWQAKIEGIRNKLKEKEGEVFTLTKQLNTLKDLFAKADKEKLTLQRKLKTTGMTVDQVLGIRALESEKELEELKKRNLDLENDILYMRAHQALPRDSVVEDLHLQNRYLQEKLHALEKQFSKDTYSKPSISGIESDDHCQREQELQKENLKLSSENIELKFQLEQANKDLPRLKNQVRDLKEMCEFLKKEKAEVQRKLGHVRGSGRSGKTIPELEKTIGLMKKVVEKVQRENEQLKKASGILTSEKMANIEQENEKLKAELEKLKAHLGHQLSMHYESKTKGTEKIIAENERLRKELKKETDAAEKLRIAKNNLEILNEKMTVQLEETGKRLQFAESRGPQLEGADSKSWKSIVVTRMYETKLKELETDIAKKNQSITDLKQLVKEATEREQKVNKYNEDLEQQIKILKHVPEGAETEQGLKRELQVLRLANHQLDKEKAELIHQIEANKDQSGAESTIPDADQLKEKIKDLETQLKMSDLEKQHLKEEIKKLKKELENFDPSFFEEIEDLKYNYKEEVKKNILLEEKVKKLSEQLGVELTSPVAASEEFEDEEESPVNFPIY
UniProt Q15154: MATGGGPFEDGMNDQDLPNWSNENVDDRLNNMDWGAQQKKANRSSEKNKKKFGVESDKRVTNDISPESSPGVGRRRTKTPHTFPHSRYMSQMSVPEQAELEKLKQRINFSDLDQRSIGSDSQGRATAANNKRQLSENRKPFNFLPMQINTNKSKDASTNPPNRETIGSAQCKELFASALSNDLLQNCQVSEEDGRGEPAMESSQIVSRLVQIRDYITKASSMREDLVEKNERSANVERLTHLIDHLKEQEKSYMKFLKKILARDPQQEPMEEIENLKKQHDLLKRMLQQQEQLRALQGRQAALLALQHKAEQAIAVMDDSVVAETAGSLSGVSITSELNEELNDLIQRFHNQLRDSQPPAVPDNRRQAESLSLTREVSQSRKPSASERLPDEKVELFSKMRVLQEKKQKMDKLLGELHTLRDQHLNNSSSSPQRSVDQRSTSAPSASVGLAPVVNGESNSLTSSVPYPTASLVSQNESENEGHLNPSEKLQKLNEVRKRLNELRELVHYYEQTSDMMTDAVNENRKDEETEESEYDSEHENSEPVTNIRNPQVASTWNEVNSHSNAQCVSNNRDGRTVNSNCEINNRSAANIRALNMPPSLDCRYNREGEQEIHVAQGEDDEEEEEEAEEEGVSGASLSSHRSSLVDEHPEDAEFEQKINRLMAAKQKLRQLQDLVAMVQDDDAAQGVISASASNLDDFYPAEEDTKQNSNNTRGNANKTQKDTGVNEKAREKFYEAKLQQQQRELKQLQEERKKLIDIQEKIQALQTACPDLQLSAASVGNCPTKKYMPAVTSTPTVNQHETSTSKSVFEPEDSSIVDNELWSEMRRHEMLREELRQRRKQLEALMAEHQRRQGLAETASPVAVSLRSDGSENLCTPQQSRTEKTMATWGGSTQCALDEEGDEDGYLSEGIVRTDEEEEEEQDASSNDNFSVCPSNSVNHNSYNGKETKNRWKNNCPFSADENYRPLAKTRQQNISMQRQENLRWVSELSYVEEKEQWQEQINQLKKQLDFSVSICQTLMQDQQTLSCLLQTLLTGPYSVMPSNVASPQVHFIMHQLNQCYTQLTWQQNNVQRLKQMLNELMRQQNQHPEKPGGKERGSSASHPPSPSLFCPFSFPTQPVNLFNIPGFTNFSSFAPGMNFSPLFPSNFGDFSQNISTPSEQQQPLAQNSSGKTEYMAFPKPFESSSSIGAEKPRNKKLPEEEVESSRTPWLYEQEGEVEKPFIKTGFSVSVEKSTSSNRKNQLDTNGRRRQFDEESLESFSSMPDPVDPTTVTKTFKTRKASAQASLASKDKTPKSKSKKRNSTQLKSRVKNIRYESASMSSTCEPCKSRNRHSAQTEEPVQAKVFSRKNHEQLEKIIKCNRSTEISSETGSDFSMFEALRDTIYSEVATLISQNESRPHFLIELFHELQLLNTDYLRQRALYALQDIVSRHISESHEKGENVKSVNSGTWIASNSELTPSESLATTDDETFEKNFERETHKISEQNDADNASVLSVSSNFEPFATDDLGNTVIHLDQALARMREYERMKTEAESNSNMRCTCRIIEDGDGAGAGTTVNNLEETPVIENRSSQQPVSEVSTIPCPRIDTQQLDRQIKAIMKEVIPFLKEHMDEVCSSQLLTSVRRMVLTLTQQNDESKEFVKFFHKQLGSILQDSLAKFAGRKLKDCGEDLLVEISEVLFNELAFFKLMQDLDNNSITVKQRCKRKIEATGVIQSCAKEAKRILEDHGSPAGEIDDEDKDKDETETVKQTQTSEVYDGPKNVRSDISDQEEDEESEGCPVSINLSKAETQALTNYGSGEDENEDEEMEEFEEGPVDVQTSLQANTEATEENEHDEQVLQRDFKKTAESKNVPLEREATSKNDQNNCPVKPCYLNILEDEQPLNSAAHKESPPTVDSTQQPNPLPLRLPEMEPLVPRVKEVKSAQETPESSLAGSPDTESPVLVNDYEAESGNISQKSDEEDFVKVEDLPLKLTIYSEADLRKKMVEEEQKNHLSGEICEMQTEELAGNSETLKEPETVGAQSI

What was measured:
GFP-GABARAP (human) = GFP-GABARAP (human) (UniProt O95166); test: co-IP; GFP-trap precipitation of lysates of HEK293 cells transfected with GFP-tagged constructs (alone or with HA-PCM1 variants); immunoblot for endogenous proteins or HA
GFP-GABARAPL2 (human) [1] = target: GFP-GABARAPL2 (human) (UniProt P60520); test: as above
GFP-GABARAPL2 (human) [2] = target: GFP-GABARAPL2 (human) (UniProt P60520); test: co-IP; GFP-trap MA beads on lysates of doxycycline-induced stable MCF7 cells, standard IP lysis buffer, 1 h at 4 °C, 5 washes, immunoblot for endogenous proteins
GFP-GABARAPL2 (human) [3] = target: GFP-GABARAPL2 (human) (UniProt P60520); test: co-IP; GFP-trap precipitation from U2OS cells transiently transfected with inducible GFP-tagged constructs and treated with control or CEP131 siRNA; immunoblot for endogenous PCM1 and CEP131
GFP-GABARAPL2 (human) [4] = target: GFP-GABARAPL2 (human) (UniProt P60520); test: co-IP; GFP-trap beads split after 1 h with lysate and washed 2 x 5 min in standard IP lysis buffer, or the buffer with 500 mM NaCl, 500 mM NaCl + 1 M urea or 500 mM NaCl + 2 M urea; cell line not stated

| binding (GFP-GABARAP (human)) | binding (GFP-GABARAPL2 (human) [1]) | binding (GFP-GABARAPL2 (human) [2]) | binding (GFP-GABARAPL2 (human) [3]) | binding (GFP-GABARAPL2 (human) [4]) | Substance |
| --- | --- | --- | --- | --- | --- |
| binds | binds | – | – | – | CEP290, endogenous (from UniProt O15078 1-2479) |
| – | binds | – | – | – | HA-PCM1-wt (from UniProt Q15154 1-2024) |
| – | – | binds | binds | binds | pericentriolar material 1 (PCM1), endogenous (from UniProt Q15154 1-2024) |
